Measurements as given in PubChem BioAssay AID504444 (National Center for Advancing Translational Sciences (NCATS), 2011).
Among all 360,000 compounds or so, about 7,500 (2.1%) were called active. The shares of active, inactive and inconclusive entries below differ from those in the screen. The call rests on the fitted dose curve; in most records, active means well fitted inhibition curve with a large enough effect; inconclusive means small, poorly fitted or top-dose-only effect, or effect the other way; inactive means flat fitted curve, though single readings scatter. Potencies of inconclusive entries are doubtful fits and often do not repeat.

Assay: Nrf2 qHTS screen for inhibitors; further: nearly all actives have a fitted effect of over 60% in size
Conditions: A549 ARE-Fluc reporter, luciferase luminescence, 18-24 h; activity change, negative = inhibition: at 46 µM (top of the series)
In short: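 In this cell-based qHTS, ARE-driven firefly luciferase in A549 cells reports Nrf2 activity; the luminescent signal after BugLite lysis is the measured value, with a prior CellTiter-Fluor read for cell health.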
On the % scale 0 is the no-effect control and ±100 the full control effect; potency means the concentration at half of the fitted maximal effect.

| SMILES | Potency | activity change, negative = inhibition |
| --- | --- | --- |
| CC(C)CNC(=O)C1Nc2ccc(OC(F)(F)F)cc2C2C=CCC12 (centres undefined) | inconclusive: 20.6 µM [falling, single point] | – |
| COc1ccc2c(c1)OC[C@H]1[C@H]2N2C(=O)c3ccc(C)cc3NC(=O)[C@@]2(C)[C@H]1c1ccccc1 | inconclusive: 3.66 µM [activator, full curve] | – |
| CCCCn1nc2cc(C(=O)NCc3cc(C(F)(F)F)cc(C(F)(F)F)c3)ccc2c1OCC | active: 18.4 µM | – |
| Cc1ccc(S(=O)(=O)NCC(=O)OCC(=O)N2N=C(c3ccc(Cl)cc3)CC2c2ccco2)cc1C (centres undefined) | – | inactive: 3.45% |
| Cc1cc(C(=O)COC(=O)C23CC4CC(CC(O)(C4)C2)C3)c(C)n1C | inconclusive: 5.17 µM [activator, full curve] | – |
| CCn1c(CN2CCN(c3cccc(C)c3C)CC2)n[nH]c1=S | inconclusive: 23.1 µM [falling, single point] | – |
| Cc1c(C)n(Cc2ccccc2)c2ccc(C(=O)NCC(C)c3ccccc3)cc12 (centres undefined) | – | inactive: 0% |
| Cc1ccc(N2CCN(S(=O)(=O)c3nnc(NC(=O)c4ccccc4)s3)CC2)cc1 | inconclusive: 0.058 µM [activator, full curve, poor fit] | – |
| NC(=O)CC(NC(=O)Cc1ccc(Br)cc1)c1ccc(NC2CCCCCC2)c([N+](=O)[O-])c1 (centres undefined) | active: 23.1 µM | – |
| O=C(Nc1ccc2ccccc2c1)c1cccc([N+](=O)[O-])c1 | inconclusive: 2.59 µM [activator, full curve] | – |
| CCCc1ccc(OCc2ccc(C(=O)N3CCSCC3)o2)cc1 | inconclusive: 2.59 µM [activator, partial curve] | – |
| Cc1ccccc1Cn1nc(C)c(NC(=O)c2noc3c2CCc2ccccc2-3)c1C | inconclusive: 18.4 µM [falling, single point] | – |
| O=S(=O)(c1cccc(-c2n[nH]c(=S)n2C2CCCC2)c1)N1CCOCC1 | inconclusive: 23.1 µM [falling, single point] | – |
| Cc1ccc(NN2C(=O)C=C(c3ccccc3)C2=O)cc1 | – | inactive: -19.4% |
| COc1ccc(-c2oc3cc(OC)c(O)c(OC)c3c(=O)c2OC)cc1O | inconclusive: 18.4 µM [falling, single point] | – |
| Cc1ccc(CS/C(Nc2ccccc2C)=C(\C#N)C(=O)NCc2ccco2)c(C)c1 | inconclusive: 16.4 µM [falling, partial curve, poor fit] | – |
| O=C(Nc1ccc(N2CCN(C(=O)c3ccco3)CC2)cc1)c1ccc(Br)cc1 | active: 16.4 µM | – |
| O=C(Cn1cc(S(=O)(=O)Cc2cccc(Cl)c2)c2ccccc21)Nc1ccccc1C(F)(F)F | – | inactive: -17.9% |
| Cc1cc(=O)[nH]c(SCC(=O)Nc2nc3c(s2)CCCC3)n1 | inconclusive: 6.51 µM [falling, single point] | – |
| C/C(=N\NC(=O)c1cccs1)c1ccc2c(c1)OCO2 | inconclusive: 29.1 µM [activator, single point] | – |
| O=S(=O)(c1ccc2nc(-c3ccccc3)[nH]c2c1)N1CCN(c2ccc(Cl)cc2)CC1 | inconclusive: 29.1 µM [falling, single point] | – |
| COc1ccccc1CNC(=O)CSc1nc(-c2ccc(OC)c(OC)c2)cc(C(F)(F)F)n1 | – | inactive: -11.6% |

| SMILES | Potency | activity change, negative = inhibition |
| --- | --- | --- |
| COc1ccc(S(=O)(=O)N2CCC(C(=O)NC(C)CCc3ccccc3)CC2)cc1 (centres undefined) | inconclusive: 18.4 µM [falling, partial curve] | – |
| Cc1cc(Cl)ccc1OCCCC(=O)N1CCN(C(=O)c2ccco2)CC1 | inconclusive: 25.9 µM [falling, partial curve, poor fit] | – |
| COc1cccc(C(O)Cc2nc3ccccc3n2C)c1OC (centres undefined) | inconclusive: 14.6 µM [activator, partial curve] | – |
| COCCN1CCN(C(=O)c2ccc3nc(Cc4ccc(OC)c(OC)c4)oc3c2)CC1 | inconclusive: 7.31 µM [falling, partial curve] | – |
| CS(=O)(=O)N1CCN(c2ccccc2NC(=O)c2cc3ccccc3o2)CC1 | – | inactive: -14.3% |
| c1ccc(-c2nnc(C3CC(c4ccncc4)=NO3)o2)cc1 (centres undefined) | inconclusive: 29.1 µM [activator, single point] | – |
| CN(Cc1nc(-c2ccccc2)no1)C1CCOCC1 | inconclusive: 0.517 µM [activator, partial curve, poor fit] | – |
| O=C(COC(=O)C1(c2ccc(F)cc2)CCCC1)NCc1ccc2c(c1)OCO2 | inconclusive: 25.9 µM [falling, single point] | – |
| CCOc1ccccc1C(=O)NC(C(=O)NCc1ccc(F)cc1)C(C)C (centres undefined) | inconclusive: 8.2 µM [falling, partial curve, poor fit] | – |
| CN(C)c1ccc(C=NNC(=S)Nc2ccc(F)cc2)cc1 | inconclusive: 32.6 µM [falling, single point] | – |
| COc1ccc(-c2cccc(C(=O)Nc3cccc(C(=O)O)c3)c2)cc1 | inconclusive: 20.6 µM [activator, partial curve] | – |
| O=C(CSCc1ccccc1)N1CCN(c2ccccc2)CC1 | – | inactive: 3.5% |
| Cc1cc(C(=O)OCCN2C(=O)c3ccccc3C2=O)c2ccccc2n1 | inconclusive: 18.4 µM [falling, partial curve, poor fit] | – |
| O=C(O)CCn1c(SCc2ccccc2)nc2ccccc21 | inconclusive: 23.1 µM [activator, single point] | – |
| CCCCC(O)(c1ccc(F)cc1)C(CN1CCOCC1)c1ccc(Cl)cc1 (centres undefined) | inconclusive: 25.9 µM [falling, partial curve, poor fit] | – |
| CCOC(=O)c1cc(C(C)C)sc1NC(=O)COC(=O)c1nccnc1N | inconclusive: 5.17 µM [activator, single point] | – |
| CCc1ccc2oc(-c3ccc(C)c(NC(=O)c4cc([N+](=O)[O-])ccc4N4CCOCC4)c3)nc2c1 | inconclusive: 5.17 µM [activator, partial curve, poor fit] | – |
| Cc1ccc(-c2cc3cccc[n+]3cc2-c2ccc(C)cc2)cc1 | active: 3.26 µM | – |
| CCCCCc1ccc(-c2ccc(C(=O)O)cc2)nc1 | inconclusive: 0.461 µM [activator, full curve] | – |
| COc1cccc(NC(=O)c2cc3ccccc3cc2OC)c1 | inconclusive: 9.2 µM [activator, partial curve] | – |
| CCOC(=O)C1=C(c2ccccc2)N=C2SCC(=O)N2C1c1ccc(O)c(OC)c1 (centres undefined) | inconclusive: 4.61 µM [activator, partial curve, poor fit] | – |
| CC(C)Cc1cc(C(=O)NCc2ccc(Cl)cc2)no1 | – | inactive: 4.67% |

| SMILES | Potency | activity change, negative = inhibition |
| --- | --- | --- |
| COCC(=O)N1CCCN(c2nc3c(C)cccc3cc2C#N)CC1 | inconclusive: 13 µM [falling, single point] | – |
| NNC(=O)c1cccc(COc2cccc(Br)c2)c1 | inconclusive: 3.66 µM [activator, full curve] | – |
| CC(C)(C)c1ccc(S(=O)(=O)NCC2CCCO2)cc1 (centres undefined) | inconclusive: 16.4 µM [falling, partial curve] | – |
| O=c1c2ccccc2nc(/C=C/c2cccc([N+](=O)[O-])c2)n1CCCO | inconclusive: 11.6 µM [falling, single point] | – |
| Clc1ccc(CSc2ccc(-c3cccs3)nn2)cc1 | inconclusive: 29.1 µM [activator, partial curve, poor fit] | – |
| CS(=O)(=O)Oc1ccc(Br)cc1/C=C1/N=C(c2ccco2)OC1=O | – | inactive: 3.56% |
| Cn1/c(=N/N=C/c2ccccn2)sc2ccccc21 | inconclusive: 4.11 µM [activator, full curve] | – |
| COC(=O)c1ccc(-c2ccc(/C=N/NC(=O)Cc3nnc(N)s3)o2)cc1 | inconclusive: 25.9 µM [activator, single point] | – |
| COC(=O)CN1C(=O)CSc2ccc(S(=O)(=O)Nc3ccc(F)c(Cl)c3)cc21 | – | inactive: -2.17% |
| CSc1ncc(C(=O)Nc2cc(C)cc(C)c2)c(-c2ccccc2)n1 | inconclusive: 29.1 µM [activator, single point] | – |
| COc1ccc(-n2c(=O)c3c4c(sc3n(Cc3ccc(F)cc3)c2=O)CN(C(C)=O)CC4)c(OC)c1 | inconclusive: 2.91 µM [activator, partial curve, poor fit] | – |
| O=C(CCc1nc2sc3c(c2c(=O)[nH]1)CCCC3)NCCOc1ccccc1 | – | inactive: -9.13% |
| Cc1cc(C(=O)NC(=S)Nc2ccccc2N2CCCC2)ccc1[N+](=O)[O-] | inconclusive: 32.6 µM [falling, partial curve, poor fit] | – |
| CN(C(=O)c1cccc(NC(=O)Cc2cccc([N+](=O)[O-])c2)c1)C1CCC1 | inconclusive: 23.1 µM [falling, single point] | – |
| COc1cccc(/C=N/NC(=O)c2ccncc2)c1OC(=O)c1ccc(Br)cc1 | inconclusive: 29.1 µM [falling, single point] | – |
| CCOc1ccc(NC(=O)Nc2nnc(N3CCCCC3C)s2)cc1 (centres undefined) | inconclusive: 29.1 µM [falling, single point] | – |
| COC(=O)c1ccc(OCC(=O)Nc2ccccc2C(=O)NC2CC2)cc1 | inconclusive: 5.8 µM [falling, partial curve, poor fit] | – |
| COc1ccc(-c2ccc(C)cc2)cc1[C@H]1[C@@H]2C=CCC[C@@]2(C)C(=O)N1Cc1ccccc1 | inconclusive: 18.4 µM [falling, single point] | – |
| COc1cccc(CNC(=O)c2c(C)nn(-c3ccc(F)cc3)c2-n2cccc2)c1 | – | inactive: -15.5% |
| COc1ccccc1C1CC(c2ccc(NS(C)(=O)=O)cc2)=NN1C(=O)c1ccccc1 (centres undefined) | inconclusive: 16.4 µM [falling, partial curve, poor fit] | – |

A few values from the results shown.
For Potency, COCC(=O)N1CCCN(c2nc3c(C)cccc3cc2C#N)CC1 shows inconclusive: 13 µM [falling, single point]
For Potency, Clc1ccc(CSc2ccc(-c3cccs3)nn2)cc1 shows inconclusive: 29.1 µM [activator, partial curve, poor fit]
